The numbers were not newly measured in US20160050959A1, “TABLET COMPRISING FRUCTOSE” (NATURALIA INGREDIENTS S.R.L., priority 2013, published 2016), which cites them from elsewhere.

For this data set the following is noted: in vivo; cited from earlier work.
On to `O=C(CO)[C@@H](O)[C@H](O)[C@H](O)CO` [fructose extracted from fruit, fructose], for which the glycemic index is listed as 12.

For `O=C(CO)[C@@H](O)[C@H](O)[C@H](O)CO` [fructose], the glycemic index result was “approximately 20”. Turning to `O=C(CO)[C@@H](O)[C@H](O)[C@H](O)CO` [“traditional” maize fructose, fructose], the glycemic index is 20.
